Test results from publication PMC8764063.
These are yes or no findings as the source states them, for the method shown. Binding seen in cells or lysates may run through a third protein. Some binding calls cover weakened binding; strength is not graded here. For part of these data: Where a sequence is shown, tags or fusion partners need not be part of it.

Amino acid sequences for entries named in this document (tags omitted). A change or cut given only in a name is not applied to a line headed by its entry. Chains listed by the source or under a name are the forms on record and can include a tag or linker.
UniProt Q9H1D9: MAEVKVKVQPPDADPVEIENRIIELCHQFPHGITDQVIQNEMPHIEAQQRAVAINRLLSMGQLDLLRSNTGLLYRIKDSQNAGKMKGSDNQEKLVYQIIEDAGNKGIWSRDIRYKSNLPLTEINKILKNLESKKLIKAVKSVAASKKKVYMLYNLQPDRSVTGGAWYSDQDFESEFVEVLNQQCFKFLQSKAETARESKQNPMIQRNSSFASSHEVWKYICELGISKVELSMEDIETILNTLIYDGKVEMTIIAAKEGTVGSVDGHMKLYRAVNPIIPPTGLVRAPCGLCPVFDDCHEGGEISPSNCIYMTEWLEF
UniProt Q9Y530: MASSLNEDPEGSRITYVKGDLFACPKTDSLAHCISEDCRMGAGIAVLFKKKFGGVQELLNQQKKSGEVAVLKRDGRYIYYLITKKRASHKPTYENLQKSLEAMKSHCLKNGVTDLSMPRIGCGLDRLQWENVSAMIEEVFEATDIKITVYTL
HA-tagged mutant TARG1 (HA-mTARG1) (Q9Y530, form named): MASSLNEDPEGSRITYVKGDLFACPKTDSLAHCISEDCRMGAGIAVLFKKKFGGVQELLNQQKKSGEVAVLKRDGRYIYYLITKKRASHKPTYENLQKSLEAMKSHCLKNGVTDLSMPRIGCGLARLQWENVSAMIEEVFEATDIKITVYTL
HA-tagged mutant tPARP1 (HA-mtPARP1, tPARP1 E988A) (P09874, form named): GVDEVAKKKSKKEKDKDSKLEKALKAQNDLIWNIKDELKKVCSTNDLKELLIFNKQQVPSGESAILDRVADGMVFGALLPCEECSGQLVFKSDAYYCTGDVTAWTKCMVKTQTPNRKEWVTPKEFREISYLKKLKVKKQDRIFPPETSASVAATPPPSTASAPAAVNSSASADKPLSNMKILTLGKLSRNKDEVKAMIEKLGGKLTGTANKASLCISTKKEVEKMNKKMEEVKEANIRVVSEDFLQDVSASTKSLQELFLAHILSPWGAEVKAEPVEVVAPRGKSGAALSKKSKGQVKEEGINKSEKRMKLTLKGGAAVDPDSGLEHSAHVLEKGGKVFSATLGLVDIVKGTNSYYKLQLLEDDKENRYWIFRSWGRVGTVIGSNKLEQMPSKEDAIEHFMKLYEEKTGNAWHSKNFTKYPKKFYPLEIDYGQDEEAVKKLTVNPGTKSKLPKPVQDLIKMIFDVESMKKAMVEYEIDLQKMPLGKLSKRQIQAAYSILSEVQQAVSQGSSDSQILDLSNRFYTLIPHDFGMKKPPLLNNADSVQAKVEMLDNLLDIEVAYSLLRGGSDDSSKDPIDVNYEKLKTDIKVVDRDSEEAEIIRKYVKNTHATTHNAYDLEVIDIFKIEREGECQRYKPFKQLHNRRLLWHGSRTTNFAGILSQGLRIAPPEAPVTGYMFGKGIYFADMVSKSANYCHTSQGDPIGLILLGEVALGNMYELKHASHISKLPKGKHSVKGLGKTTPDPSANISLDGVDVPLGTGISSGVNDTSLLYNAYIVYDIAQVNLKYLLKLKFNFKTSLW
UniProt Q9BUI4: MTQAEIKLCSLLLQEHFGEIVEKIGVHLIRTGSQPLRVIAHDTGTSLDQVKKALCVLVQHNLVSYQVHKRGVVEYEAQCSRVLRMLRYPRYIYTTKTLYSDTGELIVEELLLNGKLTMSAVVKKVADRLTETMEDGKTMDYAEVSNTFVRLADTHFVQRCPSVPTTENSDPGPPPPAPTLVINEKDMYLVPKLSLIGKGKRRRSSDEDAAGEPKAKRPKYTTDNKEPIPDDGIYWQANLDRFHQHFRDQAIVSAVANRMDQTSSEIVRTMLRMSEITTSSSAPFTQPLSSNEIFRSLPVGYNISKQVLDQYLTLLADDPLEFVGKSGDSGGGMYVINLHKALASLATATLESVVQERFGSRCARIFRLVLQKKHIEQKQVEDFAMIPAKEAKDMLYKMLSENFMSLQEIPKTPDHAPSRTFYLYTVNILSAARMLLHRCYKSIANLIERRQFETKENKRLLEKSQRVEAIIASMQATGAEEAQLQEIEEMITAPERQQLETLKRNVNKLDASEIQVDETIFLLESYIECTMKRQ
UniProt Q9Y2Y1: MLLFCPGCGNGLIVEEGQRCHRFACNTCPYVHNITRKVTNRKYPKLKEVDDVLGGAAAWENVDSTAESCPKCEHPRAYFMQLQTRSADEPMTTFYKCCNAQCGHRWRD

How the values were obtained:
FLAG-POLR3F (human) = FLAG-POLR3F (human) (UniProt Q9H1D9); test: co-IP; Pol III complex purified by FLAG IP from U2OS cells stably expressing FLAG-POLR3F, with or without ADP-ribosylation by tPARP1 in vitro; subunits detected by Western blot with antibodies against the individual subunits; IgG as control IP
[1] = target: POLR3F (human (endogenous in U2OS)) (UniProt Q9H1D9); test: co-IP; IP of POLR3F from the cytoplasmic fraction of U2OS cells treated with or without poly(dA-dT) (5 ug/ml, six hours); subunits detected by immunoblot
[2] = target: HA-tagged mutant TARG1 (HA-mTARG1) (UniProt Q9Y530); test: co-IP; myc-tagged Pol III subunit and HA-tagged protein co-transfected in U2OS-PARP1 knockout cells; NETN100 lysate, antibody and beads 2 h at 4 °C; western blotting
[3] = target: HA-tagged mutant tPARP1 (HA-mtPARP1, tPARP1 E988A) (human) (UniProt P09874); test: as above

| binding (FLAG-POLR3F (human)) | binding [1] | binding [2] | binding [3] | Molecule |
| --- | --- | --- | --- | --- |
| binds | binds | – | – | POLR3C (from UniProt Q9BUI4 1-534) |
| binds | binds | – | – | POLR3K (from UniProt Q9Y2Y1 1-108) |
| – | – | binds | binds | myc-POLR3F (from UniProt Q9H1D9 1-316) |
| binds | binds | – | – | POLR3D (protein, UniProt P05423 1-398) MSEGNAAGEPSTPGGPRPLLTGARGLIGRRPAPPLTPGRLPSIRSRDLTLGGVKKKTFTPNIISRKIKEEPKEEVTVKKEKRERDRDRQREGHGRGRGRPEVIQSHSIFEQGPAEMMKKKGNWDKTVDVSDMGPSHIINIKKEKRETDEETKQILRMLEKDDFLDDPGLRNDTRNMPVQLPLAHSGWLFKEENDEPDVKPWLAGPKEEDMEVDIPAVKVKEEPRDEEEEAKMKAPPKAARKTPGLPKDVSVAELLRELSLTKEEELLFLQLPDTLPGQPPTQDIKPIKTEVQGEDGQVVLIKQEKDREAKLAENACTLADLTEGQVGKLLIRKSGRVQLLLGKVTLDVTMGTACSFLQELVSVGLGDSRTGEMTVLGHVKHKLVCSPDFESLLDHKHR |
| binds | binds | – | – | POLR3A (protein, UniProt O14802 1-1390) MVKEQFRETDVAKKISHICFGMKSPEEMRQQAHIQVVSKNLYSQDNQHAPLLYGVLDHRMGTSEKDRPCETCGKNLADCLGHYGYIDLELPCFHVGYFRAVIGILQMICKTCCHIMLSQEEKKQFLDYLKRPGLTYLQKRGLKKKISDKCRKKNICHHCGAFNGTVKKCGLLKIIHEKYKTNKKVVDPIVSNFLQSFETAIEHNKEVEPLLGRAQENLNPLVVLNLFKRIPAEDVPLLLMNPEAGKPSDLILTRLLVPPLCIRPSVVSDLKSGTNEDDLTMKLTEIIFLNDVIKKHRISGAKTQMIMEDWDFLQLQCALYINSELSGIPLNMAPKKWTRGFVQRLKGKQGRFRGNLSGKRVDFSGRTVISPDPNLRIDEVAVPVHVAKILTFPEKVNKANINFLRKLVQNGPEVHPGANFIQQRHTQMKRFLKYGNREKMAQELKYGDIVERHLIDGDVVLFNRQPSLHKLSIMAHLARVKPHRTFRFNECVCTPYNADFDGDEMNLHLPQTEEAKAEALVLMGTKANLVTPRNGEPLIAAIQDFLTGAYLLTLKDTFFDRAKACQIIASILVGKDEKIKVRLPPPTILKPVTLWTGKQIFSVILRPSDDNPVRANLRTKGKQYCGKGEDLCANDSYVTIQNSELMSGSMDKGTLGSGSKNNIFYILLRDWGQNEAADAMSRLARLAPVYLSNRGFSIGIGDVTPGQGLLKAKYELLNAGYKKCDEYIEALNTGKLQQQPGCTAEETLEALILKELSVIRDHAGSACLRELDKSNSPLTMALCGSKGSFINISQMIACVGQQAISGSRVPDGFENRSLPHFEKHSKLPAAKGFVANSFYSGLTPTEFFFHTMAGREGLVDTAVKTAETGYMQRRLVKSLEDLCSQYDLTVRSSTGDIIQFIYGGDGLDPAAMEGKDEPLEFKRVLDNIKAVFPCPSEPALSKNELILTTESIMKKSEFLCCQDSFLQEIKKFIKGVSEKIKKTRDKYGINDNGTTEPRVLYQLDRITPTQVEKFLETCRDKYMRAQMEPGSAVGALCAQSIGEPGTQMTLKTFHFAGVASMNITLGVPRIKEIINASKAISTPIITAQLDKDDDADYARLVKGRIEKTLLGEISEYIEEVFLPDDCFILVKLSLERIRLLRLEVNAETVRYSICTSKLRVKPGDVAVHGEAVVCVTPRENSKSSMYYVLQFLKEDLPKVVVQGIPEVSRAVIHIDEQSGKEKYKLLVEGDNLRAVMATHGVKGTRTTSNNTYEVEKTLGIEAARTTIINEIQYTMVNHGMSIDRRHVMLLSDLMTYKGEVLGITRFGLAKMKESVLMLASFEKTADHLFDAAYFGQKDSVCGVSECIIMGIPMNIGTGLFKLLHKADRDPNPPKRPLIFDTNEFHIPLVT |
| – | – | binds | binds | myc-POLR3A (protein, UniProt O14802 1-1390) MVKEQFRETDVAKKISHICFGMKSPEEMRQQAHIQVVSKNLYSQDNQHAPLLYGVLDHRMGTSEKDRPCETCGKNLADCLGHYGYIDLELPCFHVGYFRAVIGILQMICKTCCHIMLSQEEKKQFLDYLKRPGLTYLQKRGLKKKISDKCRKKNICHHCGAFNGTVKKCGLLKIIHEKYKTNKKVVDPIVSNFLQSFETAIEHNKEVEPLLGRAQENLNPLVVLNLFKRIPAEDVPLLLMNPEAGKPSDLILTRLLVPPLCIRPSVVSDLKSGTNEDDLTMKLTEIIFLNDVIKKHRISGAKTQMIMEDWDFLQLQCALYINSELSGIPLNMAPKKWTRGFVQRLKGKQGRFRGNLSGKRVDFSGRTVISPDPNLRIDEVAVPVHVAKILTFPEKVNKANINFLRKLVQNGPEVHPGANFIQQRHTQMKRFLKYGNREKMAQELKYGDIVERHLIDGDVVLFNRQPSLHKLSIMAHLARVKPHRTFRFNECVCTPYNADFDGDEMNLHLPQTEEAKAEALVLMGTKANLVTPRNGEPLIAAIQDFLTGAYLLTLKDTFFDRAKACQIIASILVGKDEKIKVRLPPPTILKPVTLWTGKQIFSVILRPSDDNPVRANLRTKGKQYCGKGEDLCANDSYVTIQNSELMSGSMDKGTLGSGSKNNIFYILLRDWGQNEAADAMSRLARLAPVYLSNRGFSIGIGDVTPGQGLLKAKYELLNAGYKKCDEYIEALNTGKLQQQPGCTAEETLEALILKELSVIRDHAGSACLRELDKSNSPLTMALCGSKGSFINISQMIACVGQQAISGSRVPDGFENRSLPHFEKHSKLPAAKGFVANSFYSGLTPTEFFFHTMAGREGLVDTAVKTAETGYMQRRLVKSLEDLCSQYDLTVRSSTGDIIQFIYGGDGLDPAAMEGKDEPLEFKRVLDNIKAVFPCPSEPALSKNELILTTESIMKKSEFLCCQDSFLQEIKKFIKGVSEKIKKTRDKYGINDNGTTEPRVLYQLDRITPTQVEKFLETCRDKYMRAQMEPGSAVGALCAQSIGEPGTQMTLKTFHFAGVASMNITLGVPRIKEIINASKAISTPIITAQLDKDDDADYARLVKGRIEKTLLGEISEYIEEVFLPDDCFILVKLSLERIRLLRLEVNAETVRYSICTSKLRVKPGDVAVHGEAVVCVTPRENSKSSMYYVLQFLKEDLPKVVVQGIPEVSRAVIHIDEQSGKEKYKLLVEGDNLRAVMATHGVKGTRTTSNNTYEVEKTLGIEAARTTIINEIQYTMVNHGMSIDRRHVMLLSDLMTYKGEVLGITRFGLAKMKESVLMLASFEKTADHLFDAAYFGQKDSVCGVSECIIMGIPMNIGTGLFKLLHKADRDPNPPKRPLIFDTNEFHIPLVT |
| binds | binds | – | – | POLR3B (protein, UniProt Q9NW08 1-1133) MDVLAEEFGNLTPEQLAAPIPTVEEKWRLLPAFLKVKGLVKQHIDSFNYFINVEIKKIMKANEKVTSDADPMWYLKYLNIYVGLPDVEESFNVTRPVSPHECRLRDMTYSAPITVDIEYTRGSQRIIRNALPIGRMPIMLRSSNCVLTGKTPAEFAKLNECPLDPGGYFIVKGVEKVILIQEQLSKNRIIVEADRKGAVGASVTSSTHEKKSRTNMAVKQGRFYLRHNTLSEDIPIVIIFKAMGVESDQEIVQMIGTEEHVMAAFGPSLEECQKAQIFTQMQALKYIGNKVRRQRMWGGGPKKTKIEEARELLASTILTHVPVKEFNFRAKCIYTAVMVRRVILAQGDNKVDDRDYYGNKRLELAGQLLSLLFEDLFKKFNSEMKKIADQVIPKQRAAQFDVVKHMRQDQITNGMVNAISTGNWSLKRFKMDRQGVTQVLSRLSYISALGMMTRISSQFEKTRKVSGPRSLQPSQWGMLCPSDTPEGEACGLVKNLALMTHITTDMEDGPIVKLASNLGVEDVNLLCGEELSYPNVFLVFLNGNILGVIRDHKKLVNTFRLMRRAGYINEFVSISTNLTDRCVYISSDGGRLCRPYIIVKKQKPAVTNKHMEELAQGYRNFEDFLHESLVEYLDVNEENDCNIALYEHTINKDTTHLEIEPFTLLGVCAGLIPYPHHNQSPRNTYQCAMGKQAMGTIGYNQRNRIDTLMYLLAYPQKPMVKTKTIELIEFEKLPAGQNATVAVMSYSGYDIEDALVLNKASLDRGFGRCLVYKNAKCTLKRYTNQTFDKVMGPMLDAATRKPIWRHEILDADGICSPGEKVENKQVLVNKSMPTVTQIPLEGSNVPQQPQYKDVPITYKGATDSYIEKVMISSNAEDAFLIKMLLRQTRRPEIGDKFSSRHGQKGVCGLIVPQEDMPFCDSGICPDIIMNPHGFPSRMTVGKLIELLAGKAGVLDGRFHYGTAFGGSKVKDVCEDLVRHGYNYLGKDYVTSGITGEPLEAYIYFGPVYYQKLKHMVLDKMHARARGPRAVLTRQPTEGRSRDGGLRLGEMERDCLIGYGASMLLLERLMISSDAFEVDVCGQCGLLGYSGWCHYCKSSCHVSSLRIPYACKLLFQELQSMNIIPRLKLSKYNE |
| binds | binds | – | – | POLR3H (protein, UniProt Q9Y535 1-204) MFVLVEMVDTVRIPPWQFERKLNDSIAEELNKKLANKVVYNVGLCICLFDITKLEDAYVFPGDGASHTKVHFRCVVFHPFLDEILIGKIKGCSPEGVHVSLGFFDDILIPPESLQQPAKFDEAEQVWVWEYETEEGAHDLYMDTGEEIRFRVVDESFVDTSPTGPSSADATTSSEELPKKEAPYTLVGSISEPGLGLLSWWTSN |
| binds | binds | – | – | POLR3E (protein, UniProt Q9NVU0 1-708) MANEEDDPVVQEIDVYLAKSLAEKLYLFQYPVRPASMTYDDIPHLSAKIKPKQQKVELEMAIDTLNPNYCRSKGEQIALNVDGACADETSTYSSKLMDKQTFCSSQTTSNTSRYAAALYRQGELHLTPLHGILQLRPSFSYLDKADAKHREREAANEAGDSSQDEAEDDVKQITVRFSRPESEQARQRRVQSYEFLQKKHAEEPWVHLHYYGLRDSRSEHERQYLLCPGSSGVENTELVKSPSEYLMMLMPPSQEEEKDKPVAPSNVLSMAQLRTLPLADQIKILMKNVKVMPFANLMSLLGPSIDSVAVLRGIQKVAMLVQGNWVVKSDILYPKDSSSPHSGVPAEVLCRGRDFVMWKFTQSRWVVRKEVATVTKLCAEDVKDFLEHMAVVRINKGWEFILPYDGEFIKKHPDVVQRQHMLWTGIQAKLEKVYNLVKETMPKKPDAQSGPAGLVCGDQRIQVAKTKAQQNHALLERELQRRKEQLRVPAVPPGVRIKEEPVSEEGEEDEEQEAEEEPMDTSPSGLHSKLANGLPLGRAAGTDSFNGHPPQGCASTPVARELKAFVEATFQRQFVLTLSELKRLFNLHLASLPPGHTLFSGISDRMLQDTVLAAGCKQILVPFPPQTAASPDEQKVFALWESGDMSDQHRQVLLEIFSKNYRVRRNMIQSRLTQECGEDLSKQEVDKVLKDCCVSYGGMWYLKGTVQS |
